Results on one molecule are retold here after article PMC9223896.

The target of assay [1] is T1, endogenous NAT10 (human (endogenous in VCaP and PC-3)) (UniProt Q9H0A0).
T1 sequence: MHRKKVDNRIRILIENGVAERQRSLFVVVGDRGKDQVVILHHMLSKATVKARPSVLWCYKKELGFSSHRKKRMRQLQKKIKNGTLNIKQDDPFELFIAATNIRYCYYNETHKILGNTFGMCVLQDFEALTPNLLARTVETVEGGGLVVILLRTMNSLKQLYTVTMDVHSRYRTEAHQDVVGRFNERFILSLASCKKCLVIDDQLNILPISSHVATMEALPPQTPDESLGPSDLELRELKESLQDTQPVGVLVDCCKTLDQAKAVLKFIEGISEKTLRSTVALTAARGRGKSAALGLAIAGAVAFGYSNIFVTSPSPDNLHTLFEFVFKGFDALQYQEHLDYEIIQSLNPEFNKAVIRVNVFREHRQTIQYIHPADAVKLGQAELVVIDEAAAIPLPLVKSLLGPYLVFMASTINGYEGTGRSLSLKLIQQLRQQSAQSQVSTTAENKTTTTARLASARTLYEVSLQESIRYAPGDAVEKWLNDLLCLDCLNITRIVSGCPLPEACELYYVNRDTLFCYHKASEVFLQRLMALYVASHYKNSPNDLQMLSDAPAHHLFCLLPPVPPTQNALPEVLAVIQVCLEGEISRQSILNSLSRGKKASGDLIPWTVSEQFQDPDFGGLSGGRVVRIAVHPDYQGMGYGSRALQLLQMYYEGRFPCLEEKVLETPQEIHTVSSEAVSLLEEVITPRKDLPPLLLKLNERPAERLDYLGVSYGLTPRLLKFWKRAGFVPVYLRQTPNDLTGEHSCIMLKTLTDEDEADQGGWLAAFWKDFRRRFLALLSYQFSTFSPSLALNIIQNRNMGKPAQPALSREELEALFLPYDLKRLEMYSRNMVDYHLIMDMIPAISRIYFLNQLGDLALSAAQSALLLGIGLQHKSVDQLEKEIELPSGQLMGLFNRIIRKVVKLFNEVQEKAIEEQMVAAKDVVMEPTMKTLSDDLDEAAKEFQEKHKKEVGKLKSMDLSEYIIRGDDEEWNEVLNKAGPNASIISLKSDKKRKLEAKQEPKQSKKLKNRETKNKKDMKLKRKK
Kind of assay: co-IP; endogenous proteins in VCaP cell lysate; immunoprecipitation with NAT10 antibody and with CDC6 antibody, protein A/G agarose, overnight at 4 °C; immunoblot.

Assay [2] concerns the target T2, GFP-NAT10 (N-acetyltransferase 10 in pEGFP-C3) (UniProt Q9H0A0).
T2 sequence: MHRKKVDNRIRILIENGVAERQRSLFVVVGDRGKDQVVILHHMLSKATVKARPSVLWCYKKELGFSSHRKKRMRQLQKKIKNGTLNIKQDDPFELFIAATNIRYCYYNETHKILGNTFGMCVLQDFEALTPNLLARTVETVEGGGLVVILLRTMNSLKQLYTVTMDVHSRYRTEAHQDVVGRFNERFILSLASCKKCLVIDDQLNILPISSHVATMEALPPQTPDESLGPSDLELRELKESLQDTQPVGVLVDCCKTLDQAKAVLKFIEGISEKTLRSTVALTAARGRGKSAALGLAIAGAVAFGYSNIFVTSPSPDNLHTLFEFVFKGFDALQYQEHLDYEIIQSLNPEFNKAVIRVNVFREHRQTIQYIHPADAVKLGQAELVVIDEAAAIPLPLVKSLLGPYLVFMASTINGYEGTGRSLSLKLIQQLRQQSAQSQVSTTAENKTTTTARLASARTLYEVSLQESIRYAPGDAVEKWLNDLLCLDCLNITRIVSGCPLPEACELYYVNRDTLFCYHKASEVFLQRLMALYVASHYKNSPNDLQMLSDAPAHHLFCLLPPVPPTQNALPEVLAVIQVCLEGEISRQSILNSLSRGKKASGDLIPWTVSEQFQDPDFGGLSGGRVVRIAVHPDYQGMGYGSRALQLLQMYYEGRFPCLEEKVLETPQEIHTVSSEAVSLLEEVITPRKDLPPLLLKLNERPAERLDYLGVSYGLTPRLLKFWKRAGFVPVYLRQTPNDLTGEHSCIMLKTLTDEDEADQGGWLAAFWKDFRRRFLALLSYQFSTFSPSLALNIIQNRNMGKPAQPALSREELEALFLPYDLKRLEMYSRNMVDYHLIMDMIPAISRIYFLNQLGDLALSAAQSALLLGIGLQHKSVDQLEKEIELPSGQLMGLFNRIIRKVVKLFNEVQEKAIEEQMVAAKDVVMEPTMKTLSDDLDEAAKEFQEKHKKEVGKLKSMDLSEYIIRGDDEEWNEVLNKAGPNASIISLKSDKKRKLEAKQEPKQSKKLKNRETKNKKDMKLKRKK
In words: co-IP; VCaP and PC-3 cells transfected with GFP-NAT10 or Flag-CDC6; lysate; anti-GFP mAb-agarose or anti-DDDDK-tag pAb agarose; endogenous partner detected by immunoblot. On the technique in general: Immunoblotting shows a protein as a band on a membrane.

No constants are given. Whether binding was seen depends on the method and setting. Binding seen in cells or lysates may run through a third protein. Some binding calls cover weakened binding; strength is not graded here. For some assays here: Sequences can lack the tags named with a protein.

B1: endogenous CDC6 (protein, UniProt Q99741 1-560)
chain: MPQTRSQAQATISFPKRKLSRALNKAKNSSDAKLEPTNVQTVTCSPRVKALPLSPRKRLGDDNLCNTPHLPPCSPPKQGKKENGPPHSHTLKGRRLVFDNQLTIKSPSKRELAKVHQNKILSSVRKSQEITTNSEQRCPLKKESACVRLFKQEGTCYQQAKLVLNTAVPDRLPAREREMDVIRNFLREHICGKKAGSLYLSGAPGTGKTACLSRILQDLKKELKGFKTIMLNCMSLRTAQAVFPAIAQEICQEEVSRPAGKDMMRKLEKHMTAEKGPMIVLVLDEMDQLDSKGQDVLYTLFEWPWLSNSHLVLIGIANTLDLTDRILPRLQAREKCKPQLLNFPPYTRNQIVTILQDRLNQVSRDQVLDNAAVQFCARKVSAVSGDVRKALDVCRRAIEIVESDVKSQTILKPLSECKSPSEPLIPKRVGLIHISQVISEVDGNRMTLSQEGAQDSFPLQQKILVCSLMLLIRQLKIKEVTLGKLYEAYSKVCRKQQVAAVDQSECLSLSGLLEARGILGLKRNKETRLTKVFFKIEEKEIEHALKDKALIGNILATGLP
For the molecule B1, the binding result in assay [1] and in assay [2] was “binds” throughout.
